# Patent US20020111386A1, “Apparatus for pulmonary delivery of drugs with simultaneous liquid lavage and ventilation” (priority 1989, published 2002)
# For at least one compound, name, drawing or mass did not settle the structure.
# System: anesthetized and tracheotomized young cats
# Assay: Pulmonary administration of drugs dispersed in PFC liquid during liquid ventilation: cardiovascular and airway smooth muscle effects
# Type: in vivo, cat
# Method: When testing the dose-dependency effect of the pulmonary administration of acetylcholine [ACh], the effect after the administration of the drug (expressed as a percentage of the baseline), as a function of the concentration of the drug, was monitored.
# Here, the ACh was dispersed in the PFC liquid medium. The initial amount of ACh dispersed in the PFC liquid was 0.01 mg per each kilogram of the laboratory animal's body weight.
# (§1) Each of the animals tested had at least one of the following parameters recorded before, during and after the pulmonary administration of the drug: (a) heart rate (bpm), (b) mean arterial pressure (mm Hg), and (c) tracheal pressure (cm water). The averages for each of these recorded parameters were then calculated, depending upon the number of cats tested. These calculated values are plotted on the graph in FIG. 35.
# In addition to the above, the following parameters were also monitored and/or controlled: tidal volume, inspiratory and expiratory liquid flow rate, arterial chemistry, pulmonary compliance and resistance, and/or breathing frequency.
# For each incremental increase, the animals tested had at least one of the aforementioned parameters recorded before and after the pulmonary administration of the drug.
# Also for each incremental increase, the averages for each recorded parameter were calculated and plotted on the graph in FIG. 35.
# Another way in which the effect of the pulmonary administration of ACh was tested was by monitoring carotid pressure, as a function of time, before, during and after the pulmonary administration of the drug. Here, 0.6 mg/kg of Ach was dispersed in the PFC liquid medium.
# Yet another way in which the effect of the pulmonary administration of ACh was tested was by monitoring tracheal pressure, as a function of time, before, during and after the pulmonary administration of the drug.
# Here, 0.6 mg/kg of ACh was dispersed in the PFC liquid medium.
# When testing the dose-dependency effect of the pulmonary administration of epinephrine [Epi], the effect after the administration of the drug (expressed as a percentage of the baseline), as a function of the concentration of the drug, was monitored.
# Here, the Epi was dispersed in the PFC liquid medium. The initial amount of Epi dispersed in the PFC liquid was 0.01 mg Per each kilogram of the laboratory animal's body weight.
# as §1, with “before” for “before, during”, “36.” for “35.”
# Also for each incremental increase, the averages for each recorded parameter were calculated and plotted on the graph in FIG. 36.
# Another way in which the effect of the pulmonary administration of Epi was tested was by monitoring the change in mean arterial pressure and heart rate resulting from drug delivery.
# Here, 0.50 mg/kg of Epi was dispersed in the PFC liquid medium.
# When testing the dose-dependency effect of the pulmonary administration of priscoline [P], the effect after the administration of the drug (expressed as a percentage of the baseline), as a function of the concentration of the drug, was monitored.
# Here, the P was dispersed in the PFC liquid medium. The initial amount of P dispersed in the PFC liquid was 4 mg.
# Each of the animals tested weighed approximately 3 kg. Each of these test animals had at least one of the following parameters recorded before and after the pulmonary administration of the drug: (a) heart rate (bpm), (b) mean arterial pressure (mm Hg), and (c) right ventricular pressure.
# The averages for each of the aforementioned recorded parameters were then calculated, depending upon the number of cats tested. These calculated values are plotted on the graph in FIG. 37. […]
# [1] = ACh 0.01 to 1.0 mg/kg in inspired PFC liquid, FIG. 35
compound,measurement,setting,value
"CC(=O)OCC[N+](C)(C)C [ACh, acetylcholine]",onset of decrease in carotid pressure after administration,0.6 mg/kg ACh in PFC liquid,almost instantaneously
same,onset of increase in tracheal pressure after administration,0.6 mg/kg ACh in PFC liquid,almost instantaneously
same,"heart rate, dose-dependent response (percentage of baseline)",[1],progressive decreases
same,"mean arterial pressure, dose-dependent response (percentage of baseline)",[1],progressive decreases
same,"peak tracheal pressure, dose-dependent response (percentage of baseline)",[1],progressive increase
same,tracheal pressure (airway constriction),injected into perfluorocarbon liquid during inspiration,rapid increase
